{"source": "paper PMC3991700", "key": {"[1]": {"target": "T1, FilR1 (Methanosaeta harundinacea 6Ac) (UniProt G7WMP6)", "T1 sequence (looked up)": "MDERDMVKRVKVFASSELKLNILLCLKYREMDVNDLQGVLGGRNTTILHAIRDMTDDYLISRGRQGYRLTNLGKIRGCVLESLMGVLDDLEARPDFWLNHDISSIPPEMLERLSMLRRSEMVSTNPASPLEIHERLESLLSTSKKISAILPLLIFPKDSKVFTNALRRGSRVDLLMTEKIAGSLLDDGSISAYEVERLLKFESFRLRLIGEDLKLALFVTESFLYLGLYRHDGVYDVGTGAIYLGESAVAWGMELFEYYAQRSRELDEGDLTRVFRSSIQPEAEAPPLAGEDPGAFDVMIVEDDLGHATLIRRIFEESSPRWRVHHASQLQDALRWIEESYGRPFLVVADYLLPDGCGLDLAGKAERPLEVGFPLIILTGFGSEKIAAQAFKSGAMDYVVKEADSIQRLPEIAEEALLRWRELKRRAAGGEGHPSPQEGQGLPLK", "assay": "EMSA", "conditions": "10 mM Mg2+, poly dI-dC, EMSA: 10 mM Tris-HCl pH 8.0, 50 mM KCl, 10 mM MgCl2, 1 mM DTT, 2.5% glycerol, 1% NP-40, 0.5 mM EDTA, 1 ug/uL poly dI-dC, 10 fmol (0.5 nM) biotin probe, 20 uL, 25 C, recombinant protein, residues 1-445, protein details: His6 (pET28a), label: 5' biotin on forward primer, probe letters rebuilt from the primers and the genome"}, "[2]": {"target": "Pi-FilR1 (FilR1 phosphorylated by FilI) (Methanosaeta harundinacea 6Ac) (UniProt G7WMP6)", "assay": "EMSA", "conditions": "FilI + ATP phosphorylation, enhanced affinity vs unphosphorylated FilR1; EMSA: 10 mM Tris-HCl pH 8.0, 50 mM KCl, 10 mM MgCl2, 1 mM DTT, 2.5% glycerol, 1% NP-40, 0.5 mM EDTA, 1 ug/uL poly dI-dC, 10 fmol (0.5 nM) biotin probe, 20 uL, 25 C; recombinant protein; residues 1-445; protein details: His6 (pET28a); label: 5' biotin on forward primer; probe letters rebuilt from the primers and the genome"}}, "note": "For some of these results: No signal at the amounts used counts as a negative. For some of these results: Tags and fusion partners may be left off the protein sequences shown. Construct, isoform or probe ends are uncertain for at least one entry. For some of these results: Weaker means in comparison with the reference protein, sequence or condition of that experiment."}
{"sequence": "AAGCCCTGCCTGCCAAAGCCATCCCCCAAACGTCTGTGGACTAGCAAAGAATGCCAATGCAGTATATTAAAGTGACCGTCCCCAGGGTACGACCGCACAATATTTAGCCCTGGGGAGGGGAGGGGATAGAGTTTGAATCTGATGGTGA (double strand) [PfwdCABD]", "values": [{"measurement": "binding result", "setting": "[1]; low affinity", "result": "binds more weakly"}, {"measurement": "binding result", "setting": "[2]", "result": "binds"}]}
{"sequence": "AACGGGTTCCATCTCGATATGATCAAGGGGTGGGGGGTTTATTAATAGGTTGAGGTCCCCCTCTCGAGGCCCGGAAAGGGCAAGAGATCCCCCGATAGATTTTTATCGACCGCATATTATCGAATTTTCCCCCGGCAGAGAGGCGGAGGCTTTATACCATTTTGGCATATCGAGGGTGAGTGGGTGAATCGGCATGGCGGAG (double strand) [Pacs1]", "values": [{"measurement": "binding result", "setting": "[2]", "result": "binds"}]}
{"sequence": "ATTCCACCTCCTCATATCCCCTCAGATTTTCCGCAAAACAAGACGATAACCTCGTCTGTGGCATTCCTTTATAGCACTTTCCAGAAGAATAGCCGGGTCAGAAGCGGGAGGTTTAGTGCATAATCGCTGGTATTTGTGGATCGCTTGGATGAGACGATGATGGTAAAGGTCTGCCAAAATAGCAAAAGTCATTGAATATAATTTGTAAAAGAGCGCCGAGGGGGAGATTCGAACTCCCGCGACCCTTGCGAATCACAAGCTTTCAGTAGAGAATTCCAGGCTTGCGCCTTACCACTAGACTACCTCGGCAC (double strand) [PMhar_0449]", "values": [{"measurement": "binding result", "setting": "[1]", "result": "no binding"}]}
